These are yes or no findings as the source states them, for the method shown. In cells and extracts the contact can be indirect. Some results given as binding are weak or reduced against the parent protein; the word gives no strength. Tags and fused reporters may be left off the sequences shown.
T1: STR18-nLuc (Arabidopsis thaliana) (UniProt Q9FKW8)
T1 sequence: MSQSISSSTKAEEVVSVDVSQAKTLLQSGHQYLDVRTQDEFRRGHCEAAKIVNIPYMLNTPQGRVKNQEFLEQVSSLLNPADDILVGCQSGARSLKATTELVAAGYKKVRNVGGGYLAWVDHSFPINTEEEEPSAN

T2: ABA3-nLuc (Arabidopsis thaliana) (UniProt Q9C5X8)
T2 sequence: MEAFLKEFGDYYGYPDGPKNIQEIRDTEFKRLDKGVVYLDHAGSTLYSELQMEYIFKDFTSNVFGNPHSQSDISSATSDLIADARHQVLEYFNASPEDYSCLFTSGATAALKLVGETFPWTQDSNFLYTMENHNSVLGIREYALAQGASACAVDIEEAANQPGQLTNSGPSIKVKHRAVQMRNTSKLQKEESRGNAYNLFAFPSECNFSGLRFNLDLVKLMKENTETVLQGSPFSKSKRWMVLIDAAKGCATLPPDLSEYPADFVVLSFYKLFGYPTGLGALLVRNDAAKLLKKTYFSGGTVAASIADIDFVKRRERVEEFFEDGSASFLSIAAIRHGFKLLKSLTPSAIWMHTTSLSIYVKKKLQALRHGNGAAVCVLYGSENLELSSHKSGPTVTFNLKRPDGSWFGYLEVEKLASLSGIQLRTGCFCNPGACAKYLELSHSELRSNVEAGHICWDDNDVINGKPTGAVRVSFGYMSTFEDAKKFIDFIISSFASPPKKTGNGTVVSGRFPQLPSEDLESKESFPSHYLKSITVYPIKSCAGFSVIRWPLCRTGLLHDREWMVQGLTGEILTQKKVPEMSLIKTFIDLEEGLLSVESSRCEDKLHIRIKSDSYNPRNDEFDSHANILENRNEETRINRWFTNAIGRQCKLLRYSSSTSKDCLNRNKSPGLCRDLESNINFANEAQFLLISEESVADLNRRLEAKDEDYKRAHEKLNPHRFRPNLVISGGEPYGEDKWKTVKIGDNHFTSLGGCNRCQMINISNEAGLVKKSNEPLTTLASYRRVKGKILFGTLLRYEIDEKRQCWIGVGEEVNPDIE

T3: cLuc-ABA3 (Arabidopsis thaliana) (UniProt Q9C5X8)
T3 sequence: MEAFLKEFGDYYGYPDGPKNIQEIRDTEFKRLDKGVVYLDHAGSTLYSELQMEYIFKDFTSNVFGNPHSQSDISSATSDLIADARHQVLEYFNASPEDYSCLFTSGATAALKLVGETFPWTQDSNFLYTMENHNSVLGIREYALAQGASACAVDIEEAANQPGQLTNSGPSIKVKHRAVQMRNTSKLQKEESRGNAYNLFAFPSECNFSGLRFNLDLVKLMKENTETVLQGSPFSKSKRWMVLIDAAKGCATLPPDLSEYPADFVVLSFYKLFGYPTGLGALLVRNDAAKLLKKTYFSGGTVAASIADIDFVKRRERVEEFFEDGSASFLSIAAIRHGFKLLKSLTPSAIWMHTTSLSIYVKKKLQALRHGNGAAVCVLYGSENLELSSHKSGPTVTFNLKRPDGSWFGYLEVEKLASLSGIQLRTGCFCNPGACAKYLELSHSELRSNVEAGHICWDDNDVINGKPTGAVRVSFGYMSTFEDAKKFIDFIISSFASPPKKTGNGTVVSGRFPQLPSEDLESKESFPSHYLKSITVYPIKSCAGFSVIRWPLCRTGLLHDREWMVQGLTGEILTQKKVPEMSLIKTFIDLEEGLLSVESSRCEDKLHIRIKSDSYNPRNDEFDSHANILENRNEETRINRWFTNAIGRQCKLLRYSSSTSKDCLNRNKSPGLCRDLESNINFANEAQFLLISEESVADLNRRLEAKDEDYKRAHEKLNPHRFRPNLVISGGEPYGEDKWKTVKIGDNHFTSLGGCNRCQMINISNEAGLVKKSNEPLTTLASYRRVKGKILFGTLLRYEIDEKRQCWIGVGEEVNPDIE


Experiments:
Assay in all cases: split reporter; split-luciferase complementation; nLuc and cLuc fusions coexpressed in Nicotiana benthamiana leaves after Agrobacterium-mediated transient transformation; 1 mM luciferin sprayed, luminescence imaged
[1] = biological target: T1, STR18-nLuc (Arabidopsis thaliana)
[2] = biological target: T2, ABA3-nLuc (Arabidopsis thaliana)
[3] = biological target: T3, cLuc-ABA3 (Arabidopsis thaliana)

| binding [1] | binding [2] | binding [3] | Binder |
| --- | --- | --- | --- |
| no binding | no binding |  | cLuc-ACL1 (protein, UniProt Q9SGY2 1-423) MARKKIREYDSKRLVKEHFKRLSGKELPIRSVQINETTDLNELVEKEPWLSSEKLVVKPDMLFGKRGKSGLVALKLDFADVATFVKERLGKEVEMSGCKGPITTFIVEPFVPHNEEYYLNVVSDRLGCSISFSECGGIEIEENWDKVKTIFLPTGASLTPEICAPLVATLPLEIKAEIEEFIKVIFTLFQDLDFTFLEMNPFTLVDGSPYPLDMRGELDDTAAFKNFKKWGDIEFPLPFGRVMSPTESFIHGLDEKTSASLKFTVLNPKGRIWTMVAGGGASVIYADTVGDLGYASELGNYAEYSGAPKEDEVLQYARVVIDCATANPDGKSRALVIGGGIANFTDVAATFNGIIRALKEKEAKLKAARMHIFVRRGGPNYQKGLAKMRALGDDIGVPIEVYGPEATMTGICKEAIQYITAAA |
|  | binds |  | cLuc-STR18 (enzyme, UniProt Q9FKW8 1-136) MSQSISSSTKAEEVVSVDVSQAKTLLQSGHQYLDVRTQDEFRRGHCEAAKIVNIPYMLNTPQGRVKNQEFLEQVSSLLNPADDILVGCQSGARSLKATTELVAAGYKKVRNVGGGYLAWVDHSFPINTEEEEPSAN |
|  |  | binds | STR18-nLuc (enzyme, UniProt Q9FKW8 1-136) MSQSISSSTKAEEVVSVDVSQAKTLLQSGHQYLDVRTQDEFRRGHCEAAKIVNIPYMLNTPQGRVKNQEFLEQVSSLLNPADDILVGCQSGARSLKATTELVAAGYKKVRNVGGGYLAWVDHSFPINTEEEEPSAN |

Reference: article PMC8931425, “The cytosolic Arabidopsis thaliana cysteine desulfurase ABA3 delivers sulfur to the sulfurtransferase STR18” (The Journal of Biological Chemistry, 2022)
